Reference: US20090233074A1 (ARTIFICIAL CELL TECHNOLOGIES, published 2009)
Results are given in words; binding and its absence hold for the method and conditions named. Some binding calls cover weakened binding; strength is not graded here.

Molecular target: T1, LN3 (long negative designed polypeptide)
T1 sequence (peptide): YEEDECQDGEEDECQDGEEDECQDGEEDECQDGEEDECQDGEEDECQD
Assay: QCM, layer-by-layer assembly, 10 mM Tris pH 7.4, 10 mM NaCl, 1 mM DTT, 16 layers

binding: binds
Binder: YKGKKSCHGKGKKSCHGKGKKSCHGKGKKSCH [SP5 (positive designed polypeptide)]
